PubChem BioAssay AID1508597 – Cure First – 2020

Aim: 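Genes whose silencing sensitises or protects ovarian cancer cells against rucaparib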 (primary screen)
System: human ovarian carcinoma lines grown from tumours: OCI-P5x (papillary serous) and OCI-C5x (clear cell)
Reagents: siRNA pool against human genes, 1.25 pmol siRNA per well
Timing: 72 h or 96 h, depending on the cell culture
Challenge: rucaparib 20 µM (about IC30) or vehicle, present until read-out
Rucaparib or vehicle: Vehicle
Cell line: OCI-P5x (serous)
Read-out: 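Luminescent ATP-based viability assay read 72 or 96 h after transfection, depending on culture, given as normalised percent viability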
Scale: viability, normalised: higher = more viable cells remaining
Hit rule: 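Active when normalised viability falls below 80 percent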
Calls: active = viability under 80%; inactive = viability 80% or more
This is a random part of the about 2,100 reagents, under one of the conditions tested. 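Calls flag viability under 80% in either arm, not effects specific to rucaparib; the reference for percent is not stated.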 A number with no mark means an inactive call. A reagent listed more than once was tested more than once; the source does not tell the runs apart. No sequences are given here. The record does not give: the 100% reference.

The first 2 entries, ahead of the listing:
| gene knocked down | technical replicate | viability, normalised (%) |
| --- | --- | --- |
| CD79A (CD79a molecule) | 1 | 51.1 (active) |
| CD79A (CD79a molecule) | 2 | 49.2 (active) |

The list itself, repeating the preview:
| gene knocked down | technical replicate | viability, normalised (%) |
| --- | --- | --- |
| CD79A (CD79a molecule) | 1 | 51.1 (active) |
| CD79A (CD79a molecule) | 2 | 49.2 (active) |
| CD79A (CD79a molecule) | 3 | 55 (active) |
| SLC25A26 | 1 | 65.7 (active) |
| SLC25A26 | 2 | 64.1 (active) |
| SLC25A26 | 3 | 68.6 (active) |
| PHF11 (PHD finger protein 11) | 1 | 40.4 (active) |
| PHF11 (PHD finger protein 11) | 2 | 59.5 (active) |
| PHF11 (PHD finger protein 11) | 3 | 64.9 (active) |
| HASPIN (histone H3 associated protein kinase) | 1 | 63.8 (active) |
| HASPIN (histone H3 associated protein kinase) | 1 | 67.6 (active) |
| HASPIN (histone H3 associated protein kinase) | 1 | 78.1 (active) |
| HASPIN (histone H3 associated protein kinase) | 2 | 77.3 (active) |
| HASPIN (histone H3 associated protein kinase) | 2 | 56.9 (active) |
| HASPIN (histone H3 associated protein kinase) | 2 | 47.6 (active) |
| HASPIN (histone H3 associated protein kinase) | 3 | 85.6 |
| HASPIN (histone H3 associated protein kinase) | 3 | 68.9 (active) |
| HASPIN (histone H3 associated protein kinase) | 3 | 67.2 (active) |
| VRK2 (VRK serine/threonine kinase 2) | 1 | 98.6 |
| VRK2 (VRK serine/threonine kinase 2) | 2 | 96 |
| VRK2 (VRK serine/threonine kinase 2) | 3 | 86.4 |
| CLDN6 (claudin 6) | 1 | 78.9 (active) |
| CLDN6 (claudin 6) | 2 | 89.9 |
| CLDN6 (claudin 6) | 3 | 76.9 (active) |
